Results taken from article PMC12136217.
These are yes or no findings as the source states them, for the method shown. In cells and extracts the contact can be indirect. Some entries that bind do so weakly or less than the wild type.

By UniProt entry, the sequences of proteins in these tests, tags left out. Residues count along the entry.
UniProt P20333, residues 23-461: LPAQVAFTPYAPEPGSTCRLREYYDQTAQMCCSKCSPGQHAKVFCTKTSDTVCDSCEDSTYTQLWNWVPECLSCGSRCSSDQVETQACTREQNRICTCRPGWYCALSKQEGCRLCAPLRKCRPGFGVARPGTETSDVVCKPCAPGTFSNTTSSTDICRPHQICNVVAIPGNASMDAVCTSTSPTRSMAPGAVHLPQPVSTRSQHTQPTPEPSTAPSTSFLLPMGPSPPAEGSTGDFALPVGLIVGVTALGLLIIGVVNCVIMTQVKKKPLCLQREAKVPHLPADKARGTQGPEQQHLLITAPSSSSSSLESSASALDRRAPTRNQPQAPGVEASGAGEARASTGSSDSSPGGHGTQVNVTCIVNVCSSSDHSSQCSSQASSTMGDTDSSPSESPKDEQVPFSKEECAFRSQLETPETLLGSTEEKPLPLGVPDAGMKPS

Target: TNFR2 FRET biosensor (full-length TNFR2 with C-terminal fusion of mNg or ShY) (UniProt P20333)
Experiment: FRET or BRET; fluorescence lifetime (FLT) FRET in live HEK293T cells; transient co-transfection of donor- and acceptor-tagged copies at a 1:1 donor-to-acceptor ratio, compared with donor only; single or mixed cell populations; also with zafirlukast treatment

binding: binds
Substance: TNFR2 FRET biosensor (full-length TNFR2 with C-terminal fusion of mNg or ShY) (from UniProt P20333 23-461) (receptor)
